Source: paper doi:10.1101/2023.05.30.542845
Results are given in words; binding and its absence hold for the method and conditions named. Binding seen in cells or lysates may run through a third protein. Here binding means that the protein was enriched with, or labelled near, the bait; the list need not be complete.

Target: Myeloperoxidase (human)
Test: affinity purification with mass spectrometry

binding: binds
B1: ILF3 (protein, UniProt Q12906 1-894)
chain: MRPMRIFVNDDRHVMAKHSSVYPTQEELEAVQNMVSHTERALKAVSDWIDEQEKGSSEQAESDNMDVPPEDDSKEGAGEQKTEHMTRTLRGVMRVGLVAKGLLLKGDLDLELVLLCKEKPTTALLDKVADNLAIQLAAVTEDKYEILQSVDDAAIVIKNTKEPPLSLTIHLTSPVVREEMEKVLAGETLSVNDPPDVLDRQKCLAALASLRHAKWFQARANGLKSCVIVIRVLRDLCTRVPTWGPLRGWPLELLCEKSIGTANRPMGAGEALRRVLECLASGIVMPDGSGIYDPCEKEATDAIGHLDRQQREDITQSAQHALRLAAFGQLHKVLGMDPLPSKMPKKPKNENPVDYTVQIPPSTTYAITPMKRPMEEDGEEKSPSKKKKKIQKKEEKAEPPQAMNALMRLNQLKPGLQYKLVSQTGPVHAPIFTMSVEVDGNSFEASGPSKKTAKLHVAVKVLQDMGLPTGAEGRDSSKGEDSAEETEAKPAVVAPAPVVEAVSTPSAAFPSDATAEQGPILTKHGKNPVMELNEKRRGLKYELISETGGSHDKRFVMEVEVDGQKFQGAGSNKKVAKAYAALAALEKLFPDTPLALDANKKKRAPVPVRGGPKFAAKPHNPGFGMGGPMHNEVPPPPNLRGRGRGGSIRGRGRGRGFGGANHGGYMNAGAGYGSYGYGGNSATAGYSQFYSNGGHSGNASGGGGGGGGGSSGYGSYYQGDNYNSPVPPKHAGKKQPHGGQQKPSYGSGYQSHQGQQQSYNQSPYSNYGPPQGKQKGYNHGQGSYSYSNSYNSPGGGGGSDYNYESKFNYSGSGGRSGGNSYGSGGASYNPGSHGGYGGGSGGGSSYQGKQGGYSQSNYNSPGSGQNYSGPPSSYQSSQGGYGRNADHSMNYQYR
